Measured values from PMC12354822.
These are yes or no findings as the source states them, for the method shown. In cells and extracts the contact can be indirect. Some results given as binding are weak or reduced against the parent protein; the word gives no strength.

By UniProt entry, the sequences of proteins in these tests, tags left out.
UniProt P17844: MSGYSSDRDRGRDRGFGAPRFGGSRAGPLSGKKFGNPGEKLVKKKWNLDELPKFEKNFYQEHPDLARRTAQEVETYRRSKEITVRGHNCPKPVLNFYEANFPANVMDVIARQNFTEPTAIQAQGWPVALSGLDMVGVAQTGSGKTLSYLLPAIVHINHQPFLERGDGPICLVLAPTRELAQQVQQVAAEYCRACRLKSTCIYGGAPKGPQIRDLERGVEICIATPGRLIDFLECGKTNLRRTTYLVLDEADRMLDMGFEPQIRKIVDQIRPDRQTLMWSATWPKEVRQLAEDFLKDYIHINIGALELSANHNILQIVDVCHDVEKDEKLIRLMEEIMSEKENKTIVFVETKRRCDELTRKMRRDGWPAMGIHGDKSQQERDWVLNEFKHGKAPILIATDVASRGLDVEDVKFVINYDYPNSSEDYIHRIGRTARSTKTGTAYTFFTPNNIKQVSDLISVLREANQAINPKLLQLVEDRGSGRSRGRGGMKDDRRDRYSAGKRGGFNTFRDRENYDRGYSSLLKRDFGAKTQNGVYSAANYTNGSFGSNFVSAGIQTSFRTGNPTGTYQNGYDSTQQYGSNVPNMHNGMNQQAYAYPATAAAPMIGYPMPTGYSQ

Target: T1, KIN (endogenous) (human (endogenous in KYSE30 and HEK293T)) (UniProt O60870)
T1 sequence: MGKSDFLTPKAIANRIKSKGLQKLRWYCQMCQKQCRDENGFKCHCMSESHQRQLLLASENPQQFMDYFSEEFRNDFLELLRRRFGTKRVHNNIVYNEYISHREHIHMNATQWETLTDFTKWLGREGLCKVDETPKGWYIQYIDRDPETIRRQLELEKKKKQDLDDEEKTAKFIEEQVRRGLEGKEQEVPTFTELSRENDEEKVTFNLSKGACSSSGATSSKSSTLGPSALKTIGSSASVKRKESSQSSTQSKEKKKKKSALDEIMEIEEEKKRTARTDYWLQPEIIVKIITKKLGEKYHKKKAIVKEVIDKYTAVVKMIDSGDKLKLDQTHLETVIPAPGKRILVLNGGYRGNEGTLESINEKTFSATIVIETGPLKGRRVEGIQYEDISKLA
Test: co-IP; endogenous immunoprecipitation of KIN from KYSE30 samples; blots for DHX9, DDX5 and RPS15

## DDX5 (from UniProt P17844 1-614)
  binding: binds
